Results as given in doi:10.1101/2023.01.12.523789.
Results are given in words; binding and its absence hold for the method and conditions named. Binding seen in cells or lysates may run through a third protein. Some entries that bind do so weakly or less than the wild type. Tags and fused reporters may be left off the sequences shown.

The chains behind the UniProt entries cited, without tags or fusion partners. Where a name states a change or a piece, a line headed by the entry shows the natural chain unless it says otherwise. A line that says so, or that is headed by a name, gives the form on record, which may keep a tag or linker.
UniProt Q15286: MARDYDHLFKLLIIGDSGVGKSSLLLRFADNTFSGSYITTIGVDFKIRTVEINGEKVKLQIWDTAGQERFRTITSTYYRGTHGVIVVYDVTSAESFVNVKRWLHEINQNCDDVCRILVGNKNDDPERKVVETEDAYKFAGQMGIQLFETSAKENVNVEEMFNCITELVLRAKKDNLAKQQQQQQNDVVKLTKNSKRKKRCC
GFP-Rab35 QL (Q15286, form named): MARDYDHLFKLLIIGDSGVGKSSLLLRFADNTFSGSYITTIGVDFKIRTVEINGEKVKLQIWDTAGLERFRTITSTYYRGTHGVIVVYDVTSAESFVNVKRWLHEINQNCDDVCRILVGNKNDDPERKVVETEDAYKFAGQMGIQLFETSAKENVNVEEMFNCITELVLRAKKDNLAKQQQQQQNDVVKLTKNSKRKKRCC

Molecular target: T1, Flag-DENND2B FL (UniProt P78524)
T1 sequence: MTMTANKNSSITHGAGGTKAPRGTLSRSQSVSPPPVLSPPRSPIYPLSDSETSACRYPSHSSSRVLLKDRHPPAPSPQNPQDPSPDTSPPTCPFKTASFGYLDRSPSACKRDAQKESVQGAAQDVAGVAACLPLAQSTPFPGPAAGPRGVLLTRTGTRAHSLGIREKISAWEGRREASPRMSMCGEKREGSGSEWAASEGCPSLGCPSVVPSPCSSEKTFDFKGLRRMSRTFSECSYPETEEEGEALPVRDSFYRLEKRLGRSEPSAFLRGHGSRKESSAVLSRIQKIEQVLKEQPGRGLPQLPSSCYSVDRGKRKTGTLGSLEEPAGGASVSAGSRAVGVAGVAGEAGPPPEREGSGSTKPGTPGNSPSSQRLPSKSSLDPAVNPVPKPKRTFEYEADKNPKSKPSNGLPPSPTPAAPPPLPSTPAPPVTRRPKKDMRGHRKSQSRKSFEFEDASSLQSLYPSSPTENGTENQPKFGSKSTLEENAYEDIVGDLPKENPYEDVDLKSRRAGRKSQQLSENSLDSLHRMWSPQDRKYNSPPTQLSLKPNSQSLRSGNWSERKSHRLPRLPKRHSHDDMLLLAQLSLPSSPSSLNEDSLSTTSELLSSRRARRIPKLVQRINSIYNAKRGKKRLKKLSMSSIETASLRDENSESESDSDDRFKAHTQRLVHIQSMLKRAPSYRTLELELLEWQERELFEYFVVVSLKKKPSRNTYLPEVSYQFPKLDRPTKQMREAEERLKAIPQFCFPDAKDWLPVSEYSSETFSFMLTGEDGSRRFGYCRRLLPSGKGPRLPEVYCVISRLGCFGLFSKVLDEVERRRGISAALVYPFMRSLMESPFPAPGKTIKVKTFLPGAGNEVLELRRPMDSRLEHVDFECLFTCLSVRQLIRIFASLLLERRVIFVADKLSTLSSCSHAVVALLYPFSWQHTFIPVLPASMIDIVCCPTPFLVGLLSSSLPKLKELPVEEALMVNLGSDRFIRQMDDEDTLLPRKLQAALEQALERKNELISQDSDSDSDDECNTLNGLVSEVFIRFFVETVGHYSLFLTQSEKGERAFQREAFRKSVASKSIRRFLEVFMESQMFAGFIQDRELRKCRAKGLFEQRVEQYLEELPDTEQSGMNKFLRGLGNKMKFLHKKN
Experiment: co-IP

- binding: binds
Substance: GFP-Rab35 QL (from UniProt Q15286 1-201)
